Measured values taken from PubChem BioAssay AID652054 (National Center for Advancing Translational Sciences (NCATS), 2013).
“And” between values parts separate entries of the source, which are not always exact repeats. Identical values can stand only once. In all, about 360,000 compounds went through this assay and about 9,100 (2.5%) were called active. The inconclusive results got no clear call from the source; some entries with a clear call stand among them for comparison. Rule as the data show it: active = max response below about -50%; inconclusive = no clear call, values can overlap the other calls; inactive = above that.

Protein sequences, listed by entry. Tags and fused reporters are not part of them.
UniProt P35462, whole entry, looked up: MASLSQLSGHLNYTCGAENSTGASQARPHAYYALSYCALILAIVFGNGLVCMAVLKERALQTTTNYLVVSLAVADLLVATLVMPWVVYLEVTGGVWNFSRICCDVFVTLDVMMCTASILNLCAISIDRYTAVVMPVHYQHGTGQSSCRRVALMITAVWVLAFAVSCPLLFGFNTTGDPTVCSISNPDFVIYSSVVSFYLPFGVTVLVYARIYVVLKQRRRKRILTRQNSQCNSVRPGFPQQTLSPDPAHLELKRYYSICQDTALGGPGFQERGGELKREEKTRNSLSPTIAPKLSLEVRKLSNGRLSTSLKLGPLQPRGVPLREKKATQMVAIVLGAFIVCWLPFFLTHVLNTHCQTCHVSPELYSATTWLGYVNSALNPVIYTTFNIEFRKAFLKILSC

target: D(3) dopamine receptor (Homo sapiens) (UniProt P35462); experiment: qHTS of D3 Dopamine Receptor Antagonist: qHTS; details: D3R cells, DiscoveRx beta-arrestin luminescence, antagonist mode; stronger effect = lower value
Procedure, shortened: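 Cells expressing the human receptor were seeded at 1500 cells/well, incubated overnight at 37 degrees C in 5% CO2, then exposed to library compounds with dopamine controls for 90 minutes at 37 degrees C before luminescent detection.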
% is scaled to controls: 0 for no effect and ±100 for the full control effect.

Max response, negative = inhibition, inconclusive:
Cc1ncc(CN2CCCC(C(=O)Nc3ccc(-c4cccc(F)c4)cc3)C2)n1C (stereo unspecified) -44%, CCN(C(=O)CSc1nnnn1-c1ccc(Cl)cc1)C1CCS(=O)(=O)C1 (stereo unspecified) -36.3%, CC(C)NS(=O)(=O)c1ccc(OCC(=O)Nc2cccc3ccccc23)cc1 -33.2%, COc1ccc(-c2c([C@H]3[C@H]4C=CC[C@@H](C)[C@@H]4C(=O)N3Cc3ccccc3)ccc3ccccc23)cc1OC -39.1%, Cc1ccc(NC(=O)c2ccc(S(=O)(=O)N3CCCCCC3)cc2)nc1 -31.5%, CCN(CC)CCSc1nc2ccccc2c(=S)n1-c1ccccc1 -34.4%, Cc1nn(-c2nnc(NCc3ccccc3)nn2)c(C)c1Br -31.8%, Cc1c(NS(=O)(=O)c2cccc(C(=O)NCc3ccccc3Cl)c2)c(=O)n(-c2ccccc2)n1C -44.4%, CCOC(=O)C1(CCCc2ccccc2)CCN(Cc2cnc(C)s2)CC1 -45%, CC(C)(NO)/C(=N/O)c1ccc(Br)cc1 -45.2%, O=C(C[n+]1cccc(C(=O)Nc2ccccc2)c1)c1ccc(Cl)cc1 -36.3%, C#CCOCCOCCOCCNc1nc(N2CCN(C(=O)C([C@@H](C)CC)n3cc(C(N)COC(=O)C(F)(F)F)nn3)CC2)nc(N2CCN(C(=O)[C@H](CCCCN)n3cc(C(N)CC(C)C)nn3)CC2)n1 (stereo partly specified) -32.4%, Cc1cc(S(=O)(=O)Nc2nc(CN3CCOCC3)nc3sc4c(c23)CCCC4)ccc1F -42.8%, COc1ccc(-c2cn(CCO)c(CCN)n2)cc1 -34.6%, O=C(CSc1n[nH]c(-c2ccccc2O)n1)N1CCCc2ccccc21 -42.9%, CC1(C)CC(=O)C(C=N)=C(O)C1 -31.2%, COc1ccccc1Cc1c(C2CCCCC2)nc2ccc(C)cn12 -43.6%, Cc1ccc(C)c(-n2c3nc(=O)[nH]c(=O)c-3cc3cc([N+](=O)[O-])ccc32)c1 -45.2%, CN(C)c1ccnc(-n2cccc2/C=N/OCc2ccccc2)c1C#N -37.5%, Cc1ccc(C)c(C(=O)CC2(O)C(=O)N(C)c3ccccc32)c1 (stereo unspecified) -36%, CN(CC(=O)O/N=C(\N)c1ccccn1)S(=O)(=O)c1ccccc1 -34.3%, Cc1nc(NC(=S)NC(=O)c2ccccc2)sc1C -31.9%, O=C(c1cccs1)c1ccc(-c2cccs2)s1 -30.4%, CC(C)c1ccc(NC(=S)NC2CCN(Cc3ccccc3)CC2)cc1 -33.9%, O=S(=O)(NCc1ccccn1)c1ccc(Br)s1 -36.7%, CCN(CC)CCNC(=O)c1cc2c(-c3ccc(Cl)cc3)nn(C)c2s1 -49.3%, COc1ccc(C2C(C(=O)N3CCN(c4ccccn4)CC3)CC(=O)N2c2ccc(OC)cc2)cc1 (stereo unspecified) -41.7%, O=C1c2ccccc2-c2onc3ccc(N4CCCC4)c1c23 -30.6%, CCOC(=O)c1c(NC(=O)C[n+]2ccc(Cc3ccccc3)cc2)sc(C)c1C -36%, Cc1cccc(CSc2nnc(NC(=O)c3ccco3)s2)c1 -36.6%, CSCCC(NS(=O)(=O)c1ccc(C)cc1)C(=O)N1CCCCCCC1 (stereo unspecified) -36.8%, COc1ccc(/C=N\NC(=O)c2ccc([N+](=O)[O-])cc2)cc1COc1c(F)c(F)cc(F)c1F -30.8%, COc1ccc(Nc2cc(C(=O)NCCCN3CCN(C)CC3)c3ccccc3n2)c(OC)c1 -44.4%, O=C(Nc1ccc(Cl)cc1C(=O)NCCN1CCOCC1)c1ccc(Cl)cc1Cl -41.9%, COc1ccc(CN2CCc3c([nH]c4ccccc34)C2)c(OC)c1C -48.5%, O=S(=O)(Nc1ccc(-c2ccccc2)cc1)c1ccccc1 -43.6%, COc1ccc(CCNC(=O)c2ccc3nc(-c4ccco4)c(-c4ccco4)nc3c2)cc1OC -32.1%, C[C@@H]1O[C@H](CCc2cccc(Cl)c2)CC2=C1C(=O)OC(C)(C)O2 -35.9%, CCc1nnc(N/N=C/c2c(Cl)cccc2Cl)n1N -30.1%, c1ccc2c(c1)CCCN2Cc1nnnn1CC1CCCO1 (stereo unspecified) -44%, O=C(c1ccccc1)c1ccc(OCC(O)CN2CCN(Cc3ccccc3)CC2)cc1 (stereo unspecified) -30.9%, O=c1c2ccccc2[nH]c(=S)n1CCN1CCN(Cc2ccccc2)CC1 -47.4%, CCN(CC)CCCN(C(=O)c1ccc(F)cc1)c1nc(-c2ccc(OC)cc2)cs1 -36.2%, CN1CCN(c2ccc(CNC(=O)C3Cc4c(-c5ccccc5)ccnc4O3)cc2)CC1 (stereo unspecified) -45.9%, Cc1nc(NC(=O)/C=C/c2ccco2)sc1C -30.7%

Max response, negative = inhibition, active:
COc1ccc(CN2C(=O)C(C)Nc3ncnc(N4CCN(c5ccccc5)CC4)c32)cc1 (stereo unspecified) -119% and -69.9%, CC1(C)CC(=O)C(C=Nc2ccccc2Sc2ccccc2)=C(O)C1 -53.8%, C#CCN(C[C@@H]1[C@@H](OC(=O)NCC2CCCCC2)[C@@H](OC(=O)NCC2CCCCC2)Cn2c(=O)ccc(=O)n21)S(=O)(=O)c1ccc(C)cc1 -80.9%, CCN(CC)CCC=C(c1cccs1)c1cccs1 -53.6%, CC1CC(C)CN(CCOCCSc2ccc(Cl)cc2)C1 (stereo unspecified) -80.5%, C=CCN1[C@@H](Cc2ccccc2)COCCS1(=O)=O -50.1%, CSc1ccc(CN2CCC(C)(Oc3ccccc3F)C2)cc1 (stereo unspecified) -57.4%, O=C(Cn1sc2ccccc2c1=O)Nc1ccc(F)cc1 -77.5%, COC(=O)c1[nH]c2cc(C)ccc2c1NC(=O)CN1CCc2cc(OC)c(OC)cc2C1 -67.4%, CC(C)[C@H]1CN=C2N(C[C@H](C)NC(=O)CCC3CCCCC3)[C@H](Cc3ccc(O)cc3)CN21 -94%, Cc1ccc(S(=O)(=O)c2ncccc2[N+](=O)[O-])cc1 -90%, CCN1CCN(Cc2ccc(NC(=O)c3cc(NC(=O)c4cc5cccc(OC)c5o4)cc(OC)c3)cc2C(F)(F)F)CC1 -71.7% and -58.1%, COc1cc(/C=C/C(=O)OC2CC3CCC2(C)C3(C)C)ccc1O (stereo unspecified) -50.5%, COc1ccc(C(CNC(=O)COc2ccc([N+](=O)[O-])cc2)N2CCCCC2)cc1 (stereo unspecified) -74.5%, Cc1cccc(C)c1-n1nnnc1C(C1CC1)N1CCN(C/C=C/c2ccccc2)CC1 (stereo unspecified) -78.8%

Max response, negative = inhibition, inactive:
CCC(=O)NCCCCCCNC(=O)CC -9.31%, CN(C)CCn1cnc2c1c(=O)[nH]c(=O)n2Cc1ccccc1 4.21%, Cc1cc(C(=O)NNS(=O)(=O)c2ccc(F)cc2)nn1C(C)(C)C 7.85%, CN(C)c1ccc(/C=C2\SC(=S)N(Nc3ncc(C(F)(F)F)cc3Cl)C2=O)cc1 -28%, COc1ccc(CC(=O)N[C@@H](C)C(=O)N2CCC3(CC2)NCCc2[nH]cnc23)cc1 3.74%, COc1ccc(/C=C2\SC(=S)N(CCCC(=O)NNC(=O)c3ccccc3O)C2=O)cc1 -12.6%, CCS(=O)(=O)NCCc1cc2ccc(C)cc2[nH]c1=O 0%, Cc1ccc(NC(=S)NCC(O)c2ccccc2)c(C)c1 (stereo unspecified) 9.77%, COc1ccccc1N(CC(O)COc1ccc(C)cc1)S(=O)(=O)c1ccccc1 (stereo unspecified) 10.4%, Cc1ccccc1C(=O)OC1CCCN(C)C1 (stereo unspecified) 8.27%, COc1nnc(-c2ccc(N3CCCCC3)c(NC(=O)COc3ccccc3)c2)c2ccccc12 13.5%, CCn1c(=O)c2cc(C(=O)NC(C)C)sc2c2ccccc21 0%, COc1ccc(CCNC2=CC(=O)CCC2)cc1OC 0%, Cc1sc2nc(SCC(=O)N3CCCC3)[nH]c(=O)c2c1C -18.5%, COc1ccc(C(=O)c2ccc([N+](=O)[O-])cc2Cl)cc1 -10.7%, Cc1ccc(-c2csc(C3=C(O)CN(NC(=O)c4ccco4)C3=N)n2)cc1 21.2%, CC(=O)c1ccc(OCCCC(=O)Nc2cccc(S(=O)(=O)N3CCCCC3)c2)cc1 -1.04%, CC(=O)Nc1ccc(S(=O)(=O)Nc2nc3ccccc3nc2Nc2ccc3ccccc3c2)cc1 4.43%, O=C(C1CCCN(Cc2ccc(Br)cc2)C1)N1CCCCC1 (stereo unspecified) -3.87%, S=C(NCc1ccccc1)NCc1ccc(Cl)cc1 -10.5%, COc1ccc(-c2cc(C(=O)O)c3c(C)nn(-c4ccccn4)c3n2)cc1 -6.99%, O=S(=O)(/N=C/c1ccccc1O)c1cccs1 10.9%, CCOC(=O)C1=C(C)Nc2sc(C(=O)c3ccc(F)cc3)c(N)c2C1c1ccc(C(=O)OC)cc1 (stereo unspecified) -28.8%, Cc1ccc(S(=O)(=O)N(C)C)cc1NC(=O)/C=C/c1cccs1 -18.2%, CC(C)(C)c1cc(C(c2cccnc2)N2CCN(CCO)CC2)cc(C(C)(C)C)c1O (stereo unspecified) -17.6%, CC(=O)Nc1ccc(S(=O)(=O)NCc2csc(C)n2)cc1 7.89%
